# According to PubChem BioAssay AID651768 (National Center for Advancing Translational Sciences (NCATS), 2012):
# By UniProt entry, the sequences of proteins in these tests, tags left out.
# UniProt Q14191, whole entry, looked up: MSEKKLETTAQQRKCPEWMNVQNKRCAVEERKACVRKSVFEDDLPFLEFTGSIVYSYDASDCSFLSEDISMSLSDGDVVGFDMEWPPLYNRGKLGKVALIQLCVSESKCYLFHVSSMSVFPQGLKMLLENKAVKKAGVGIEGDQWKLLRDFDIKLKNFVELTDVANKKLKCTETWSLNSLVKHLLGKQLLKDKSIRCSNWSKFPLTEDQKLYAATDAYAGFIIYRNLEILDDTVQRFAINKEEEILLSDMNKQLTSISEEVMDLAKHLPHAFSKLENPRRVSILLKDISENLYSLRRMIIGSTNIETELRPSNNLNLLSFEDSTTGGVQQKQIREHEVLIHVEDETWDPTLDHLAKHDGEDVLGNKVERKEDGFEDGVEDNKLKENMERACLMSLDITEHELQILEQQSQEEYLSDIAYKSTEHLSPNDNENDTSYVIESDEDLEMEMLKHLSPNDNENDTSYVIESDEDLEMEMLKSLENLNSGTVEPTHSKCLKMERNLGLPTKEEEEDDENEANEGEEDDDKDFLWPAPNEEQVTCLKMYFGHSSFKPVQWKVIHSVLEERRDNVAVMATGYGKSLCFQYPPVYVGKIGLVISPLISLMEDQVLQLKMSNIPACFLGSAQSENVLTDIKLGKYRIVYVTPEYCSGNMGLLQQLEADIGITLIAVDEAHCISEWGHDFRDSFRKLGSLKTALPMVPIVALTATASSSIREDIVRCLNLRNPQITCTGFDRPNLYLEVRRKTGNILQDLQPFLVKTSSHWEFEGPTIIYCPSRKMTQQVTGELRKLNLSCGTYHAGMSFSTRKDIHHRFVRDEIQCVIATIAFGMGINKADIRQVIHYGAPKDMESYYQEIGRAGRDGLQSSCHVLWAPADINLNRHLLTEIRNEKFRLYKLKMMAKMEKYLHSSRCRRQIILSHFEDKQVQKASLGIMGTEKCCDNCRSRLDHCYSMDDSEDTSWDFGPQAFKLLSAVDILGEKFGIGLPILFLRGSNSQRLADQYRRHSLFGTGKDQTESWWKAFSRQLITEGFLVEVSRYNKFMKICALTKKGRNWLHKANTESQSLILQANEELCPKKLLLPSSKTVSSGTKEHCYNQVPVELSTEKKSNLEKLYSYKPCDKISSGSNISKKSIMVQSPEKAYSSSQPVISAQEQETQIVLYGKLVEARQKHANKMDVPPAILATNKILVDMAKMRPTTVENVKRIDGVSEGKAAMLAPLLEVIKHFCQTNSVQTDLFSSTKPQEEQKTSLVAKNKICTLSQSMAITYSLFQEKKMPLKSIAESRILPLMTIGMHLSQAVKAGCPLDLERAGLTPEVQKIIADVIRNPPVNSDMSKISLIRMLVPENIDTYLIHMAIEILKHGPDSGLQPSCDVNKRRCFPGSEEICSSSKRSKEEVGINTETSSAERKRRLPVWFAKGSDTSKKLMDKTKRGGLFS
# Out of some 360,000 compounds screened, about 1,700 (0.47%) were called active. Inconclusive means that the source gave no clear call. Such entries were picked first, then a sample of the others. Calls come from the whole dose curve; as a rule, active = well fitted inhibition curve with a large enough effect; inconclusive = small, poorly fitted or top-dose-only effect; inactive = no such curve, though single readings can be large or run the other way. Potencies beside an inconclusive call are fits to weak or partial responses and may not hold up.
# Molecular target: Bifunctional 3'-5' exonuclease/ATP-dependent helicase WRN (Homo sapiens) (UniProt Q14191)
# Assay: qHTS for Inhibitors of WRN Helicase; note: nearly all actives have a fitted effect of over 55% in size
# Settings: WRN helicase unwinding, fluorescent forked duplex, kinetic; activity change, negative = inhibition: at 114 µM (top of the series) unless noted
# Outline: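 Fluorescence dequenching readout, ex 525 nm/em 598 nm, kinetic mode: forked duplex DNA (100 nM final) with adjacent fluorophore and quencher unwound by WRN (20 nM final) with 2 mM ATP. Compound preincubation 15 min, room temperature.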
# % is set by controls: 0 for no effect and ±100 for the full control effect; potency is the fitted concentration of half-maximal effect.
Compound,Potency,"activity change, negative = inhibition"
CCCn1nnc(NC(=S)NC(=O)/C=C/c2ccco2)n1,"inconclusive: 35.5 µM [inhibitor, partial curve]",
CC(=O)NC(C)(CC(=O)c1ccccc1)c1ccccc1 (stereo unspecified),inactive,
Cc1ccc2[nH]c(=O)c(CN(Cc3ccc4c(c3)OCO4)Cc3nnnn3C3CCCC3)cc2c1,"inconclusive: 79.4 µM [inhibitor, partial curve]",
Cc1ccc2c(c1)C(c1ccccc1)C(=O)O2 (stereo unspecified),"inconclusive: 3.55 µM [inhibitor, full curve, poor fit]",
O=C(O)C1CSC(c2ccco2)N1 (stereo unspecified),active: 14.1 µM,
O=C(OCCSCCOC(=O)C1CC=CCC1)C1CC=CCC1 (stereo unspecified),inactive,
Cc1ccc(C(=O)N2C(=S)C(c3ccc(F)cc3)=NC23CCN(C)CC3)cc1,"inconclusive: 28.2 µM [inhibitor, single point]",
COc1ccc(Cn2cc3c(-c4ccc(F)cc4)nnc-3c3cc(OC)c(OC)cc32)cc1,inactive,
CCN(Cc1ccccc1)CC(O)COC(c1ccc(OC)cc1)c1ccc(OC)cc1 (stereo unspecified),"inconclusive: 89.1 µM [inhibitor, single point]",
O=C1CCC(C(=O)N(CCO)Cc2ccccc2)CN1CC1CCCCC1 (stereo unspecified),"inconclusive: 89.1 µM [inhibitor, single point]",
CCOc1ccc(S(=O)(=O)NCCc2cn3ccccc3n2)cc1,"inconclusive: 89.1 µM [inhibitor, single point]",
O=C(COc1cccc2ccccc12)Nc1cc(Cl)ccc1C(=O)O,"inconclusive: 70.8 µM [inhibitor, single point]",
Cc1nn(-c2ccccc2)c(Cl)c1C(=O)NCc1cccs1,inactive,
Nc1cc2nc[nH]c2cc1N,"inconclusive: 56.2 µM [inhibitor, partial curve]",
CC(C)c1nn2c(N)c(/C=C3\C=Nc4ccccc43)c(=O)nc2s1,"inconclusive: 22.4 µM [inhibitor, single point]",
O=C(Cc1ccc(S(=O)(=O)N2CCOCC2)s1)Nc1ccc(S(=O)(=O)N2CCCCC2)cc1,"inconclusive: 39.8 µM [inhibitor, full curve, poor fit]",
Cc1ccc(N=C2NC(=O)/C(=C\c3ccco3)S2)cc1,"inconclusive: 56.2 µM [inhibitor, partial curve, poor fit]",
CCCCC1=CC2=CC(=O)C(C)(OC(=O)CC)C(=O)C2=CN1CCc1c[nH]c2ccccc12 (stereo unspecified),inactive,
Cc1cc(-c2nnc(SCC(=O)Nc3ccccn3)o2)no1,"inconclusive: 39.8 µM [inhibitor, single point]",
O=C(/C=C/c1cc(Br)ccc1O)c1ccco1,inactive,
COC(=O)c1cc(COc2ccc3oc(C)c(C(=O)OC(C)C)c3c2)c(C)o1,,inconclusive: -36.1% [inhibitor] [at 57.1 µM]
C=C(C)C(=O)Nc1cccc(C2=NOC3(C2)C[C@@H](C(N)=O)N(C(=O)c2cc([N+](=O)[O-])cc([N+](=O)[O-])c2C)C3)c1 (stereo partly specified),"inconclusive: 50.1 µM [inhibitor, partial curve]",

Compound,Potency,"activity change, negative = inhibition"
O=c1c(Cl)c(N/N=C/c2ccc(Br)cc2)cnn1-c1ccccc1,"inconclusive: 18.9 µM [inhibitor, partial curve]",
Cc1cccc(COc2ccccc2C(=O)OCC(=O)N(C)c2c(N)n(Cc3ccccc3)c(=O)[nH]c2=O)c1,"inconclusive: 79.4 µM [inhibitor, single point]",
Cc1cc(C)n2nc(C(=O)N/N=C/c3c4ccccc4cc4ccccc34)nc2n1,"inconclusive: 50.1 µM [inhibitor, partial curve]",
O=C(NNC(=O)c1cc(Cl)ccc1O)c1ccc(NS(=O)(=O)c2cccs2)cc1,"inconclusive: 44.7 µM [inhibitor, full curve]",
O=C(Nc1ccc([N+](=O)[O-])cc1)N1CCN(C(=O)C2CCCO2)CC1 (stereo unspecified),"inconclusive: 89.1 µM [inhibitor, single point]",
Cc1cc(C)nc(NC(=O)c2cc(-c3ccc4c(c3)OCO4)nc3ccccc23)c1,"inconclusive: 79.4 µM [inhibitor, single point]",
O=c1cc(OCc2ccccc2)cc[nH]1,inactive,
O=C(N/N=C\c1cccnc1)c1cc(-c2ccc(Cl)s2)[nH]n1,"inconclusive: 31.6 µM [inhibitor, partial curve, poor fit]",
O=C(O)c1cccc(N2C(=O)c3ccc4c5c(ccc(c35)C2=O)C(=O)N(c2cccc(C(=O)O)c2)C4=O)c1,,inactive: -4.55% [at 11.6 µM]
CCC1CCc2c(sc(N)c2C(N)=O)C1 (stereo unspecified),inactive,
CS(=O)(=O)c1ccc(C(=O)Nc2nc(-c3ccco3)c(-c3ccco3)s2)cc1,active: 44.7 µM,
O=S(=O)(Oc1ccc(Cl)cc1)c1cccc2cccnc12,"inconclusive: 25.1 µM [inhibitor, single point]",
O=C(COC(=O)CCC(=O)c1cccs1)NCc1ccco1,"inconclusive: 13.4 µM [inhibitor, partial curve]",
Cc1ccc(/C=C/C(=O)c2ccc(N3CCOCC3)cc2)s1,"inconclusive: 25.1 µM [inhibitor, single point]",
CC(=O)Nc1nc(N(C)C)nc(N(C)C)n1,inactive,
Cc1cccc(C(=O)OCC(=O)c2ccc3c(c2)OCO3)c1O,"inconclusive: 89.1 µM [inhibitor, single point]",
O=C(Nc1cccc(NC(=O)c2ccccc2Cl)c1)c1cccs1,"inconclusive: 10 µM [inhibitor, full curve]",
CCn1c(=NC(=O)CCS(=O)(=O)c2ccccc2)sc2cccc(OC)c21,"inconclusive: 89.1 µM [inhibitor, single point]",
COc1ccc(/C=N/NC(=O)c2nc(-c3ccccc3)n(-c3ccccc3)n2)c(O)c1,"inconclusive: 39.8 µM [inhibitor, partial curve]",
CC1CCCCN1C(=O)Cn1cnc2cc([N+](=O)[O-])ccc2c1=O (stereo unspecified),"inconclusive: 50.1 µM [inhibitor, partial curve]",
Cc1nc2c(ccc3nc(NC(=O)C(c4ccccc4)c4ccccc4)sc32)s1,inactive,
Cn1cccc1C(=O)Nc1nc(-c2ccccn2)cs1,inactive,

# Copied from the list:
# In Potency, O=C(NNC(=O)c1cc(Cl)ccc1O)c1ccc(NS(=O)(=O)c2cccs2)cc1 is entered as inconclusive: 44.7 µM [inhibitor, full curve]
# In Potency, O=C(COC(=O)CCC(=O)c1cccs1)NCc1ccco1 is entered as inconclusive: 13.4 µM [inhibitor, partial curve]
# In Potency, Cc1nc2c(ccc3nc(NC(=O)C(c4ccccc4)c4ccccc4)sc32)s1 is entered as inactive
# In Potency, Cc1cc(C)nc(NC(=O)c2cc(-c3ccc4c(c3)OCO4)nc3ccccc23)c1 is entered as inconclusive: 79.4 µM [inhibitor, single point]

# The results go on.

Compound,Potency,"activity change, negative = inhibition"
CSc1ccccc1NC(=O)CN(C)Cc1cccc(Cl)c1,"inconclusive: 35.5 µM [inhibitor, partial curve]",
C=CC(=O)Nc1cccc(Oc2ccnc(Nc3ccc(N4CCN(C)CC4)cc3)n2)c1,"inconclusive: 50.1 µM [inhibitor, partial curve]",
O=C(COC(=O)c1ccc2c(c1)C(=O)N(Cc1ccncc1)C2=O)Nc1ccccc1[N+](=O)[O-],"inconclusive: 14.1 µM [inhibitor, single point]",
CC(=Cc1ccccc1)C=C1SC(=S)N(CCCC(=O)Nc2ccc(C(=O)O)c(O)c2)C1=O,"inconclusive: 79.4 µM [inhibitor, partial curve]",
O=C1N/C(=C/c2cccn2-c2ccccc2)C(=O)N1Cc1ccccc1F,"inconclusive: 8.91 µM [inhibitor, partial curve]",
COc1cccc(NC(=O)Nc2cc(C(=O)NC(C)C)ccc2N2CC3CC(C2)c2cccc(=O)n2C3)c1 (stereo unspecified),inactive,
COc1ccccc1NS(=O)(=O)c1cccc(C(=O)N/N=C/c2c(C)nn(-c3ccccc3)c2N2CCCC2)c1,"inconclusive: 10 µM [inhibitor, partial curve]",
Cc1ccc(C)c(-n2c(-c3ccco3)n[nH]c2=S)c1,"inconclusive: 11.2 µM [inhibitor, full curve]",
COc1cc(/C=C2\SC(=O)N(CC(=O)Nc3cccc(C)c3)C2=O)cc([N+](=O)[O-])c1O,"inconclusive: 50.1 µM [inhibitor, partial curve]",
COc1ccc(-n2c(=O)[nH]cc(C(=O)Nc3ccc4c(c3)OCO4)c2=O)cc1OC,"inconclusive: 89.1 µM [inhibitor, single point]",
CCCc1ccc(C(=O)Cn2nc(C(=O)O)c3ccccc3c2=O)cc1,"inconclusive: 79.4 µM [inhibitor, partial curve]",
CC1CCC(NC(=O)CN2C(=O)NC3(CCCCC3C)C2=O)CC1 (stereo unspecified),inactive,
O=C(Nc1ccc(F)cc1)N[C@@H]1CC[C@@H](CCn2cc(-c3ccc(F)cc3)nn2)O[C@@H]1CO,inactive,
Cc1csc(NC(=O)CSc2sc3c(O)cc(=O)[nH]c3c2C#N)n1,active: 39.8 µM,
COCCn1c(C)cc(C(=O)COC(=O)c2cc3c(s2)CCC3)c1C,"inconclusive: 31.6 µM [inhibitor, partial curve, poor fit]",
Cc1ccc(C(=O)NCC(=O)N(C)CC(=O)Nc2ccccc2Br)s1,"inconclusive: 14.1 µM [inhibitor, single point]",
N#Cc1c(-c2cccs2)nc(SCC(=O)c2cccs2)[nH]c1=O,"inconclusive: 100 µM [inhibitor, partial curve, poor fit]",
N#Cc1c(SCC(=O)Nc2cccc(F)c2)sc2c(O)cc(=O)[nH]c12,"inconclusive: 10 µM [inhibitor, full curve, poor fit]",
CCNC(=O)COc1ccc(S(=O)(=O)Nc2ccccc2)cc1,"inconclusive: 89.1 µM [inhibitor, single point]",
C=CCOC(=O)C1=C(C)NC(SCC(=O)OCC)=C(C#N)C1c1ccc(O)c(OC)c1 (stereo unspecified),inactive,
CN(CCO)c1cc(Sc2nc3ccccc3s2)c2nonc2c1[N+](=O)[O-],"inconclusive: 89.1 µM [inhibitor, single point]",
CC(O)(c1ccccc1)c1nc(-c2ccncc2)cs1 (stereo unspecified),"inconclusive: 28.2 µM [inhibitor, partial curve]",
